Experimental data from PMC6704577.
No constants are given. Whether binding was seen depends on the method and setting. In cells and extracts the contact can be indirect. These calls come from enrichment with a bait or labelling near it, and not all partners need be listed. Sequences can lack the tags named with a protein.

The chains behind the UniProt entries cited, without tags or fusion partners. Where a name states a change or a piece, a line headed by the entry shows the natural chain unless it says otherwise.
UniProt O43736: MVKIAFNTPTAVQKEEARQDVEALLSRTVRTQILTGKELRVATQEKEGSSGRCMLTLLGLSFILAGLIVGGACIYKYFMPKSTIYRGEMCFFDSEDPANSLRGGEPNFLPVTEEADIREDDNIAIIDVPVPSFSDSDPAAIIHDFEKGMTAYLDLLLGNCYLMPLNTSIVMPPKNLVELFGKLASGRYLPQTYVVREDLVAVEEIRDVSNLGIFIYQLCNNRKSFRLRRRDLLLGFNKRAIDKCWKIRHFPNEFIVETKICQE

Target: GST-ITM2A (integral membrane protein 2A fused to GST) (UniProt O43736)
Assay: affinity purification with mass spectrometry; GST pull-down with the fused protein GST-ITM2A as bait; Coomassie-stained 70 kDa-100 kDa band analysed, peptide identified; source of the prey lysate not stated; only the target purified

- binding: binds
B1: Up-regulated Neu-associated Kinase (HUNK), found in the GST-ITM2A precipitate (protein, UniProt P57058 1-714)
chain: MPAAAGDGLLGEPAAPGGGGGAEDAARPAAACEGSFLPAWVSGVPRERLRDFQHHKRVGNYLIGSRKLGEGSFAKVREGLHVLTGEKVAIKVIDKKRAKKDTYVTKNLRREGQIQQMIRHPNITQLLDILETENSYYLVMELCPGGNLMHKIYEKKRLEESEARRYIRQLISAVEHLHRAGVVHRDLKIENLLLDEDNNIKLIDFGLSNCAGILGYSDPFSTQCGSPAYAAPELLARKKYGPKIDVWSIGVNMYAMLTGTLPFTVEPFSLRALYQKMVDKEMNPLPTQLSTGAISFLRSLLEPDPVKRPNIQQALANRWLNENYTGKVPCNVTYPNRISLEDLSPSVVLHMTEKLGYKNSDVINTVLSNRACHILAIYFLLNKKLERYLSGKSDIQDSLCYKTRLYQIEKYRAPKESYEASLDTWTRDLEFHAVQDKKPKEQEKRGDFLHRPFSKKLDKNLPSHKQPSGSLMTQIQNTKALLKDRKASKSSFPDKDSFGCRNIFRKTSDSNCVASSSMEFIPVPPPRTPRIVKKPEPHQPGPGSTGIPHKEDPLMLDMVRSFESVDRDDHVEVLSPSHHYRILNSPVSLARRNSSERTLSPGLPSGSMSPLHTPLHPTLVSFAHEDKNSPPKEEGLCCPPPVPSNGPMQPLGSPNCVKSRGRFPMMGIGQMLRKRHQSLQPSADRPLEASLPPLQPLAPVNLAFDMADGVKTQC
